From the supplement of paper PMC12823440, “Inhibitors supercharge kinase turnover through native proteolytic circuits” (Nature, 2025)
Where a name gives a salt, the structure may show the parent alone. The list shows a part of the results. Hit calls seldom repeat between salt and free forms of one compound.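 Kinases, fused to nanoluciferase, were expressed in K562 cells; luminescence was measured every 4 h from 2 to 18 h as percent of control (DMSO = 100%, positive control = 0%). A time point is decreased if signal falls significantly (2 sigma). Hits were called by the authors by a rule that is not shown; the count of time points alone does not decide it.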

The chains behind the UniProt entries cited, without tags or fusion partners. Where a name states a change or a piece, a line headed by the entry shows the natural chain unless it says otherwise.
UniProt P36888, whole entry: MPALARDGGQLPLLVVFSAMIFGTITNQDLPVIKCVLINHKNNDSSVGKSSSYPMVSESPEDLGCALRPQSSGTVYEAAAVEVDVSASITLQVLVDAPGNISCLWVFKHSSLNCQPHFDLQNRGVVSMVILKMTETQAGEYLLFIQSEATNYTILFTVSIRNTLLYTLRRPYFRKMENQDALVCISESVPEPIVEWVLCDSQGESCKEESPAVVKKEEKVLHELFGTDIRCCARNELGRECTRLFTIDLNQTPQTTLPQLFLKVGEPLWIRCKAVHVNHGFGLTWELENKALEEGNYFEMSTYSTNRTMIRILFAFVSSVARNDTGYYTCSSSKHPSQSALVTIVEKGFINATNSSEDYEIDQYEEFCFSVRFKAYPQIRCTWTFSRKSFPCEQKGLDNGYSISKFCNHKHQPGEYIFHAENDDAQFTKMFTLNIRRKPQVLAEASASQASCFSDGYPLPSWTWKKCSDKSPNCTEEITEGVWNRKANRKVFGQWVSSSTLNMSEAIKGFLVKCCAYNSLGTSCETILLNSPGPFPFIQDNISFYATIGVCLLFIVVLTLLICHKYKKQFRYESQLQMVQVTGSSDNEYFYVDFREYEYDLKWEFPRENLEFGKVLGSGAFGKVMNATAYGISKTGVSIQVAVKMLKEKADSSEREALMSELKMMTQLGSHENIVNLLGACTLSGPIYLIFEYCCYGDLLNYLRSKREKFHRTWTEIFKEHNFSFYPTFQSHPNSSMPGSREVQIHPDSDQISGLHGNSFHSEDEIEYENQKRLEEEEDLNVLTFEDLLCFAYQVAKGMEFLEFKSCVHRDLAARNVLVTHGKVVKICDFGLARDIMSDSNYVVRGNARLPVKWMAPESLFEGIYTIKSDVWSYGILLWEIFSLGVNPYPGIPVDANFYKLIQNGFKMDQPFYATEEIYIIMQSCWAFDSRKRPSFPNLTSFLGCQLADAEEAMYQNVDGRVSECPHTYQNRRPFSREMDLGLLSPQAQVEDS
UniProt P23458: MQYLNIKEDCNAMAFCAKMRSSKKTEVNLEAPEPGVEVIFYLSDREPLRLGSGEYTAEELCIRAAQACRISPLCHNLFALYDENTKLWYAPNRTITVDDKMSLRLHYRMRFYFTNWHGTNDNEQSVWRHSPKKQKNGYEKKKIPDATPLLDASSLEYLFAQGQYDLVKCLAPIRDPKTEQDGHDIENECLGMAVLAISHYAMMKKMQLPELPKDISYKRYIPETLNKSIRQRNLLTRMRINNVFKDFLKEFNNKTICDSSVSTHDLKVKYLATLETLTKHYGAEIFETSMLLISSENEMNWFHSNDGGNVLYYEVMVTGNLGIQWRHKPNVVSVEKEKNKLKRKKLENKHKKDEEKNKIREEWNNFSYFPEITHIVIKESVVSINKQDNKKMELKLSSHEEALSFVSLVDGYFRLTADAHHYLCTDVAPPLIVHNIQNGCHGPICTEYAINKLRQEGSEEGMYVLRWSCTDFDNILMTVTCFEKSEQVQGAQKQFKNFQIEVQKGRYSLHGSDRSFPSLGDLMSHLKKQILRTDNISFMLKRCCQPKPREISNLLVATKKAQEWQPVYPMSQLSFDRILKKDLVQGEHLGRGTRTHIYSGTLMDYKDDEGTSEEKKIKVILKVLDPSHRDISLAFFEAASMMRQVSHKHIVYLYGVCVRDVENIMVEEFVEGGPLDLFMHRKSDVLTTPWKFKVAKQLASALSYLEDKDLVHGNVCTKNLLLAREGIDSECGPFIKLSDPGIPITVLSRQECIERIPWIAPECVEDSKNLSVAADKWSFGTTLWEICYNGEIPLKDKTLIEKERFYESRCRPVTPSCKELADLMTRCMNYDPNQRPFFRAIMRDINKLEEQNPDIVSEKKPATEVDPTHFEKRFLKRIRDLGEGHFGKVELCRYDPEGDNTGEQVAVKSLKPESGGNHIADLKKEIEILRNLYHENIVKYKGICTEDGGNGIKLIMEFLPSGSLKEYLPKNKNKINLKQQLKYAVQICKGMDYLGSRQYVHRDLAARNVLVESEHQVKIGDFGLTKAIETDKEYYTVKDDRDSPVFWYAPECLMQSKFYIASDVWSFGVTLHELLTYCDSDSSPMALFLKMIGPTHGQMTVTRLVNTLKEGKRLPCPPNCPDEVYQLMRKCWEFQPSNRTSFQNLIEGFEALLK
UniProt P06239: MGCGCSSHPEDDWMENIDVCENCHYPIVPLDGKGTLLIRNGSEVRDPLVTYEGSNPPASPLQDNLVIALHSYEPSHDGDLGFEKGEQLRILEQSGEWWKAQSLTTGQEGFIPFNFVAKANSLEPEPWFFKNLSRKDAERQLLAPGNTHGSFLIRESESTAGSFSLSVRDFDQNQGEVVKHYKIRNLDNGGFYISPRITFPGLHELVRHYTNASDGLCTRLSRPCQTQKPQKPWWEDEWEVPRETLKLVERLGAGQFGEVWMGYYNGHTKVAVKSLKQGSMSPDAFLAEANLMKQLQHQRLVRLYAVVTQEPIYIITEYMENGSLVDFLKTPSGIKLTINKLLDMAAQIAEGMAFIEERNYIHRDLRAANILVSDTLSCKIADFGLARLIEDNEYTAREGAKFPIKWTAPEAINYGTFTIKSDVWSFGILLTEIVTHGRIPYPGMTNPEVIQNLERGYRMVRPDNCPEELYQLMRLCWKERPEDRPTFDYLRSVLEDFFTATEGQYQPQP
UniProt P53671: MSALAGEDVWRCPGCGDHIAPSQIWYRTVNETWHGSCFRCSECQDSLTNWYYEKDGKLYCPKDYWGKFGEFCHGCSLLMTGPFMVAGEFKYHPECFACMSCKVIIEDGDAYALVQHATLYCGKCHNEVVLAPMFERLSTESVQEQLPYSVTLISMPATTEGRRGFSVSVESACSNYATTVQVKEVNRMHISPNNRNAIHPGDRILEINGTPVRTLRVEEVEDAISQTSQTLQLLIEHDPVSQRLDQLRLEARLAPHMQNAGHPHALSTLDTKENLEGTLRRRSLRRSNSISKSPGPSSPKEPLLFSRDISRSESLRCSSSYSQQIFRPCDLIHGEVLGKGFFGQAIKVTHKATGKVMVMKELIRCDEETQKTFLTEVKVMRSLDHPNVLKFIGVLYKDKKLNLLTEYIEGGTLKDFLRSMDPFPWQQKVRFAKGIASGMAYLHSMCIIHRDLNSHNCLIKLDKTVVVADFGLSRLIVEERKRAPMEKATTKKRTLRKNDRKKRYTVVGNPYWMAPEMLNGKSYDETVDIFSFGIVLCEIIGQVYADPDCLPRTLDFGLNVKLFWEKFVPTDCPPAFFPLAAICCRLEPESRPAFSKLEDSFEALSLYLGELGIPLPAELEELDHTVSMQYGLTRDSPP
UniProt Q8IWU2: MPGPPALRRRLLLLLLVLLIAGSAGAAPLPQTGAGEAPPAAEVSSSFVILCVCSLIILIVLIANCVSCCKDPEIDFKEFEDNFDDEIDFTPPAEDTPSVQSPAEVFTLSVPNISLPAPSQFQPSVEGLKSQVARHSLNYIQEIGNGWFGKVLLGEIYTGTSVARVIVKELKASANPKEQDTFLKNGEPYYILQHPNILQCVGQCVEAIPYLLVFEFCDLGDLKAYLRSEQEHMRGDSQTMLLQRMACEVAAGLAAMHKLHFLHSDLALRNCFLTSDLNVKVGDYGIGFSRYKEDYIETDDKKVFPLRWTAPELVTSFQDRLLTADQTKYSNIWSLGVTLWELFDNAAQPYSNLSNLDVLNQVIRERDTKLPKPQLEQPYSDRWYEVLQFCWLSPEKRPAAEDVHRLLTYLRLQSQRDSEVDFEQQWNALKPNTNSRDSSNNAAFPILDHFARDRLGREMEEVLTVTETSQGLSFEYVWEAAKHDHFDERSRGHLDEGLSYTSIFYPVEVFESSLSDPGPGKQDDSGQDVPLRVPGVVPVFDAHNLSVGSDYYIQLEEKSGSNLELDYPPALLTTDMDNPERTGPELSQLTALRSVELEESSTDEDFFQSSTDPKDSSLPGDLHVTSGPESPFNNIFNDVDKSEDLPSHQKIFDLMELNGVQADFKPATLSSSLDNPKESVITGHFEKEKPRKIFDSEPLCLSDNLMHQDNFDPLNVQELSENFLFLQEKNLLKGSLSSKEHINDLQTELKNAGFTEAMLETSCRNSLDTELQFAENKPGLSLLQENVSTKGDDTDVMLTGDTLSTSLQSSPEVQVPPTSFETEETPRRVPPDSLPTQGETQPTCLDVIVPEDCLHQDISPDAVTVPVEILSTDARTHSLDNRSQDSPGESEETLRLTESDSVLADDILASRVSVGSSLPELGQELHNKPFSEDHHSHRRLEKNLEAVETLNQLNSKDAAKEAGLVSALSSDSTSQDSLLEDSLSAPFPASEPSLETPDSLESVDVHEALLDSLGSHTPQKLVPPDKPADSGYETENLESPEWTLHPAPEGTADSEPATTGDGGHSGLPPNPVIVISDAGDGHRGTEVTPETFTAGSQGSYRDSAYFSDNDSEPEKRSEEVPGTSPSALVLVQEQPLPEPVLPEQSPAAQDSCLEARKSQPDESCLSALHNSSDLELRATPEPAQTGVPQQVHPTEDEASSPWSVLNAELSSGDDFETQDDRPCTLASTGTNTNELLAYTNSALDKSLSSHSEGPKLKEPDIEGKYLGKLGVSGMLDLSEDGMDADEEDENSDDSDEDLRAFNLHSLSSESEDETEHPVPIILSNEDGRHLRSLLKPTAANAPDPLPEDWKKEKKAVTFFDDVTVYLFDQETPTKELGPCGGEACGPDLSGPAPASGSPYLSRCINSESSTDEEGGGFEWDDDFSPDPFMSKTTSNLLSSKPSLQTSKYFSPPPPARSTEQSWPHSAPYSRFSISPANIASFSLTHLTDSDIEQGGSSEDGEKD
UniProt P07948: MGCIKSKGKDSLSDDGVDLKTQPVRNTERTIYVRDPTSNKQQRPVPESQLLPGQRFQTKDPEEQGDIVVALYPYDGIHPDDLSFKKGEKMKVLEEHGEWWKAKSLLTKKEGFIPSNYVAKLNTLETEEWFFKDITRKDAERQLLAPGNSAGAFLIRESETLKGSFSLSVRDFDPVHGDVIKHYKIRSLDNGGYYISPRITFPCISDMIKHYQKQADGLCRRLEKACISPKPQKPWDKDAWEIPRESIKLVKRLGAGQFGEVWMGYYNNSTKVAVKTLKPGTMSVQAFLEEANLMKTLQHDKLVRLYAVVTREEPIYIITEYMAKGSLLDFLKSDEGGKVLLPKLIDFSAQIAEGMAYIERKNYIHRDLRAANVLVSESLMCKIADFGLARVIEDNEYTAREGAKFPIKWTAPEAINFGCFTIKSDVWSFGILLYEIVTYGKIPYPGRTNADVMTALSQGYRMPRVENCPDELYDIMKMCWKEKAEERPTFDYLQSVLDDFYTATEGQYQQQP
UniProt P28482, whole entry: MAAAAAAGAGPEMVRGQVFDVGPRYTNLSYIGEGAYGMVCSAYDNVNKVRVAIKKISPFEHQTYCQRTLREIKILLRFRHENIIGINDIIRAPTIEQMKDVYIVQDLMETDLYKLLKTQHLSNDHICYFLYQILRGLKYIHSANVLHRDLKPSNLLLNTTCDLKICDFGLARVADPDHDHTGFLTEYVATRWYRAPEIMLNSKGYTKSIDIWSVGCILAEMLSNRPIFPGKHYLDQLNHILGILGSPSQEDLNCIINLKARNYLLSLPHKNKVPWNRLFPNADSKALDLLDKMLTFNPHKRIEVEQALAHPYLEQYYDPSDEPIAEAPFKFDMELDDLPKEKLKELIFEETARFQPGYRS
UniProt Q16620, whole entry, looked up: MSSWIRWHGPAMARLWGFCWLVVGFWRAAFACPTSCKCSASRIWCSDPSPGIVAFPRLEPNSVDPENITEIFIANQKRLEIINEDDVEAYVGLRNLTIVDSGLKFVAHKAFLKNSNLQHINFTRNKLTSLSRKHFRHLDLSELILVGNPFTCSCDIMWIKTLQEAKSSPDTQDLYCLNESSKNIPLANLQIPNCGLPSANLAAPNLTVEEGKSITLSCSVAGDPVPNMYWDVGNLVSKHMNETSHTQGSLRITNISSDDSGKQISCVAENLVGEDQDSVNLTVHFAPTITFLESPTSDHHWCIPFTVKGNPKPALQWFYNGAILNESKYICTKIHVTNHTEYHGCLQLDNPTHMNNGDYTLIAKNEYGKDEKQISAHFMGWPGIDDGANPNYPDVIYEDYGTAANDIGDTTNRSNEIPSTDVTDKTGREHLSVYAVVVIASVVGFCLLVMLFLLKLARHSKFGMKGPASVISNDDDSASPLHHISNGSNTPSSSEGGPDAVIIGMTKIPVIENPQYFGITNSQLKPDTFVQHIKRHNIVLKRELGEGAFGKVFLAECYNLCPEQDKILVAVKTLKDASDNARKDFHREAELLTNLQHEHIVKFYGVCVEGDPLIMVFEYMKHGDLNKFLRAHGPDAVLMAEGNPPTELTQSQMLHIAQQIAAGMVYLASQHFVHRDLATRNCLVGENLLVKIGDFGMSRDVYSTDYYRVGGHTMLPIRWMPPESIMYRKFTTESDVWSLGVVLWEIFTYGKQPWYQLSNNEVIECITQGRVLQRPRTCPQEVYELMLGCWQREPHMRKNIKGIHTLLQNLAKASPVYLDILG

How the values were obtained:
Assay in all cases: number of time points (of 5) at which kinase-Nluc abundance scored as decreased, DMSO-normalised (count); higher = more persistent destabilization
Conditions in all cases: K562; 2-18 h
[1] = biological target: FLT3 (UniProt P36888)
[2] = biological target: FYN (UniProt P06241)
[3] = biological target: GSK3A (UniProt P49840)
[4] = biological target: HER2 (UniProt P04626)
[5] = biological target: INSRR (UniProt P14616)
[6] = biological target: IRAK3 (UniProt Q9Y616)
[7] = biological target: JAK1 (UniProt P23458)
[8] = biological target: LCK (UniProt P06239)
[9] = biological target: LIMK1 (UniProt P53667)
[10] = biological target: LIMK2 (UniProt P53671)
[11] = biological target: LMTK2 (UniProt Q8IWU2)
[12] = biological target: LYN (UniProt P07948)
[13] = biological target: MAP2K1 (UniProt Q02750)
[14] = biological target: MAP2K2 (UniProt P36507)
[15] = biological target: MAP4K2 (UniProt Q12851)
[16] = biological target: MAPK1 (UniProt P28482)
[17] = biological target: MAPK4 (UniProt P31152)
[18] = biological target: MAPKAPK2 (UniProt P49137)
[19] = biological target: MKNK1 (UniProt Q9BUB5)
[20] = biological target: NTRK2 (UniProt Q16620)

Measured: number of time points

CC(C)(C)c1nc(-c2cccc(NS(=O)(=O)c3c(F)cccc3F)c2F)c(-c2ccnc(N)n2)s1 [Dabrafenib] (2.5 µM)
5: [9]
0: all other assays above

Cn1cnc2c(F)c(Nc3ccc(Br)cc3Cl)c(C(=O)NOCCO)cc21 [Selumetinib] (10 µM)
0: all assays above

CC#CC(=O)Nc1ccc2ncnc(Nc3cccc(Br)c3)c2c1 (10 µM)
2: [9]
4: [4]
0: all other assays above

Two entries picked at random from those above:
CC(C)(C)c1nc(-c2cccc(NS(=O)(=O)c3c(F)cccc3F)c2F)c(-c2ccnc(N)n2)s1 [Dabrafenib] (2.5 µM)
5: [9]
0: all other assays above

CC#CC(=O)Nc1ccc2ncnc(Nc3cccc(Br)c3)c2c1 (10 µM)
2: [9]
4: [4]
0: all other assays above

Next entries follow.

O=C1NC(=O)/C(=C\c2cccc(C(F)(F)F)c2)S1 (2.5 µM)
0: all assays above

Cc1cc2ncc(-c3ccc(O)c(O)c3)nc2cc1C [Tyrphostin AG1433] (10 µM)
0: all assays above

COc1ccc(-c2ccc3c(N4CCOCC4)nc(N4C[C@@H](C)O[C@@H](C)C4)nc3n2)cc1CO (2.5 µM)
0: all assays above

CN1CCN(c2cccc(Nc3nc4c(-c5ccc(S(C)(=O)=O)cc5)cccn4n3)c2)CC1 (10 µM)
0: all assays above

Cc1ccc(CNc2ncnc3ccc(-c4ccc(CO)o4)cc23)o1 (10 µM)
0: all assays above

C[C@@H](c1ccc(-c2ccccc2)c(F)c1)c1cc(NC(=N)N2CCOCC2)on1 [Rimacalib] (10 µM)
0: all assays above

Nc1nc2ccc(Cl)cc2c2nc(-c3ccco3)nn12 (10 µM)
0: all assays above

N#CCC1CCN(c2nc(Nc3ccc(N4CCC(O)CC4)cc3)c3c(=O)[nH]ncc3n2)CC1 [Gusacitinib] (10 µM)
3: [6]
1: [2] | [9]
0: all other assays above

O=C(NCCN1CCOCC1)c1cc2c(Oc3ccc(NC(=O)C4(C(=O)Nc5ccc(F)cc5)CC4)cc3)ccnc2[nH]1 [Tyrosine kinase inhibitor] (10 µM)
0: all assays above

CCc1cc2c(cc1N1CCC(N3CCOCC3)CC1)C(C)(C)c1[nH]c3cc(C#N)ccc3c1C2=O [Alectinib (Hydrochloride)] (2 µM)
3: [2] | [9]
0: all other assays above

Cc1c(-c2c(F)cc(C(N)=O)c3[nH]c4c(c23)CC[C@H](C(C)(C)O)C4)cccc1-n1c(=O)c2cccc(F)c2n(C)c1=O (2.5 µM)
0: all assays above

O=C(CSC1=NCCN1)NC1CCCCCC1 [ICCB-19 (hydrochloride)] (2.5 µM)
0: all assays above

Nc1ncnc2c1c(-c1cccc(OCc3ccccc3)c1)cn2C1CC(CN2CCC2)C1 (stereo not given) (2.5 µM)
0: all assays above

C=CC(=O)Nc1cccc(Nc2nc(Nc3ccc(N4CCN(C(C)=O)CC4)cc3OC)ncc2C(F)(F)F)c1 [Rociletinib hydrobromide] (10 µM)
4: [4]
0: all other assays above

CCN1CCC(n2cc(CNc3cc(Cl)c4ncc(C#N)c(Nc5ccc(F)c(Cl)c5)c4c3)nn2)CC1 [Cot inhibitor-2] (2.5 µM)
0: all assays above

CN(CC(=O)N(Cc1ccc(C2CCCCC2)cc1)c1ccc(C(=O)NO)cc1)S(=O)(=O)c1c(F)c(F)c(F)c(F)c1F (2.5 µM)
0: all assays above

c1cc(-c2c[nH]c3nccc(N4CCC[C@@]5(CCCCN5)C4)c23)ncn1 (10 µM)
0: all assays above

COc1ccc(OC)c(C2C(C#N)=C(N)Oc3n[nH]c(-c4ccc5ccccc5c4)c32)c1 (stereo not given) (10 µM)
0: all assays above

Cn1cnc2c(F)c(Nc3ccc(Br)cc3Cl)c(C(=O)NOCCO)cc21 [Selumetinib (sulfate)] (10 µM)
1: [7]
0: all other assays above
